Data source: PubChem BioAssay AID686937 (Drosophila RNAi Screening Center, 2013)

Test: 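Genes in the fly needed for secretion of protein constitutively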 (primary screen)
System: Drosophila S2 cells expressing secreted horseradish peroxidase
Reagents: long dsRNA against Drosophila genes
Timing: about 5.5 days (5 days dsRNA, then 12 h reporter induction)
Treatment: reporter expression induced after 5 days of dsRNA, read 12 h later; inducer not stated
Measured: 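Chemiluminescent measurement of peroxidase in the medium 12 h after reporter induction, following 5 days of dsRNA, given as a z-score per plate; higher means more secretion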
Scale: z-score: higher = more reporter secreted into medium
In all, the deposit lists about 23,000 reagents; shown is an unselected part of those with a known target gene and a result. 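Reduced-secretion tags in replicate 1 do not always agree with the z-scores; no criterion for assigning the tags was given.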 A plus sign joins genes that one reagent is predicted to hit. Further read-outs or replicates are left out here. Not given: the amount of reagent.

z-score, replicate 1, by gene knocked down and reagent
Hen1 (GeneID 36301): DRSC06139 0.4; DRSC06140 0.24
CG7745 (GeneID 36210): DRSC07037 -0.38
CG18135 (GeneID 40073): DRSC10295 0.12
fiz (GeneID 32420): DRSC20188 0.04
Smg5 (GeneID 34804): DRSC03124 0.59
TrxT (GeneID 31443): DRSC22182 -0.75
CG30413 (GeneID 246601): DRSC04001 0.14
CG43658 (GeneID 32729): DRSC19455 0.17; DRSC20111 0.16
CG2812 (GeneID 37801): DRSC04319 0.23
phr (GeneID 35735): DRSC07662 0.54
CG31816 (GeneID 318960): DRSC01547 0.22
CG42810 (GeneID 34764): DRSC02533 0.22
CG14658 (GeneID 40603): DRSC12244 0.05
baf (GeneID 34095): DRSC03051 0.28
Pdhb (GeneID 43437): DRSC14420 0.48
RpL7-like (GeneID 34625): DRSC02836 -3.32
CG13727 (GeneID 39931): DRSC10055 0.25
CG12725 (GeneID 32298): DRSC19501 0.5
RluA-1 (GeneID 34438): DRSC02240 0.01; DRSC03060 0.01
uri (GeneID 37924): DRSC04111 -0.83
CG30479 (GeneID 36631): DRSC06735 0.06
CG4983 (GeneID 34585): DRSC02799 0.44
Vha100-5 (GeneID 34587): DRSC02175 -0.19
CG9737 (GeneID 43600): DRSC16550 0.27
Had2 (GeneID 36624): DRSC05971 0.42
nub (GeneID 34669): DRSC01260 -0.05; DRSC02498 0.28; DRSC02499 0.93; DRSC03583 -0.49
Nep7 (GeneID 43356): DRSC15830 0.42
crim (GeneID 39321): DRSC10573 0.15
Atac2 (GeneID 35113): DRSC02053 0.14
CG9948 (GeneID 38757): DRSC11104 -0.18
Myb (GeneID 32543): DRSC20260 -0.86
Usp7 (GeneID 32169): DRSC18909 0.26; DRSC19604 0.38
CG12935 + Nop10: DRSC07025 0.11
Pdxk (GeneID 39066): DRSC10419 0.35
Eh (GeneID 42101): DRSC16660 0.26
CG14221 (GeneID 32961): DRSC19578 0.35
Muc12Ea (GeneID 32384): DRSC19937 -0.97
cindr (GeneID 43654): DRSC14126 0.11; DRSC14298 -0.13
Cht4 (GeneID 49815): DRSC04603 0.2
Jhbp15 (GeneID 42489): DRSC15217 -0.05
CG14270 (GeneID 31319): DRSC17913 -0.37
Syx16 (GeneID 33034): DRSC20507 0.15
CG11714 (GeneID 3772566): DRSC09857 -0.51
CG12259 (GeneID 43347): DRSC14486 0.24
Rnb (GeneID 43513): DRSC16325 0.17
Prosalpha5 (GeneID 36951): DRSC07514 0.44
KP78a + KP78b: DRSC16721 0.33; DRSC16722 0.13
Adgf-B (GeneID 39975): DRSC10568 0.15
CG42822 (GeneID 10178916): DRSC13232 0.15
Mmp1 (GeneID 37949): DRSC04493 0.33
Aatf (GeneID 33943): DRSC02131 -0.29
Sry-alpha (GeneID 43571): DRSC16867 -1.34
Qsox4 (GeneID 318720): DRSC14224 0.34
p24-1 (GeneID 32140): DRSC19827 -0.17
Targ (GeneID 36630): DRSC06206 0.12
lncRNA:CR34024 (GeneID 12798269): DRSC13734 0.23
Abl (GeneID 45821): DRSC09661 0.32
LanA (GeneID 38723): DRSC11207 0.17
CG33777 (GeneID 3772311): DRSC08107 0.04
Br140 (GeneID 35648): DRSC06755 -0.09
Sema1a (GeneID 34192): DRSC03433 0.38
Acsx4 (GeneID 42355): DRSC14311 0.2
Nadsyn (GeneID 32328): DRSC20222 -0.06
CG17707 (GeneID 5740408): DRSC20650 0.24
Lon (GeneID 40138): DRSC11049 0.33
Vha16-1 (GeneID 44307): DRSC05020 -1.72
APC7 (GeneID 31594): DRSC17937 0.44
CycB (GeneID 37618): DRSC04605 0.27
Grx3 (GeneID 34745): DRSC02966 0.38
dgt4 (GeneID 31361): DRSC18659 0.26
TwdlE (GeneID 34075): DRSC02392 0.45
CG34462 (GeneID 5740319): DRSC10768 0.55
tn (retired record) (GeneID 44536): DRSC05768 0.35; DRSC06532 0.35
